Reference: the supplement of paper PMC12823440, “Inhibitors supercharge kinase turnover through native proteolytic circuits” (Nature, 2025)
Counter-ions that a name gives are not always drawn. The list shows a part of the results. Hit calls seldom repeat between salt and free forms of one compound.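 In K562 cells expressing nanoluciferase-fused kinases, luminescence was recorded at 4 h intervals between 2 and 18 h, normalized as percent of control with DMSO at 100% and a positive control at 0%. A significant (2 sigma) signal drop marks a time point as decreased. The authors' rule for a hit is not shown and takes in more than the number of time points.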

Amino acid sequences for entries named in this document (tags omitted). A change or cut given only in a name is not applied to a line headed by its entry.
UniProt O15530: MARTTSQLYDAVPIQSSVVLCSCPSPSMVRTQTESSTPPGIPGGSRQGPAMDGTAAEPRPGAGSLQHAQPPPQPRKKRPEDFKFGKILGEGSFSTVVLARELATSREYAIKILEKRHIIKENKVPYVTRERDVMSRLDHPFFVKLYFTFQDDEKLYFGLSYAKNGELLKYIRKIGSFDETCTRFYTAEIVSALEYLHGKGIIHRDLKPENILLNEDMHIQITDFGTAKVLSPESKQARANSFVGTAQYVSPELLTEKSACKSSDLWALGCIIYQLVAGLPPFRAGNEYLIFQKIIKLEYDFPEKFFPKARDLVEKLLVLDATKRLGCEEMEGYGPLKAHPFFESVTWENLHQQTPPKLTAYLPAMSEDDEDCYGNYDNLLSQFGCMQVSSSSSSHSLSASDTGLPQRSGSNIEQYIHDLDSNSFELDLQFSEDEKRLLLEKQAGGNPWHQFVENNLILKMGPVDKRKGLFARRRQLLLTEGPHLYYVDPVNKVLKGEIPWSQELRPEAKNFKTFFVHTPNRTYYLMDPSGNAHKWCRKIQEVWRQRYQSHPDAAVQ
UniProt P53350, whole entry: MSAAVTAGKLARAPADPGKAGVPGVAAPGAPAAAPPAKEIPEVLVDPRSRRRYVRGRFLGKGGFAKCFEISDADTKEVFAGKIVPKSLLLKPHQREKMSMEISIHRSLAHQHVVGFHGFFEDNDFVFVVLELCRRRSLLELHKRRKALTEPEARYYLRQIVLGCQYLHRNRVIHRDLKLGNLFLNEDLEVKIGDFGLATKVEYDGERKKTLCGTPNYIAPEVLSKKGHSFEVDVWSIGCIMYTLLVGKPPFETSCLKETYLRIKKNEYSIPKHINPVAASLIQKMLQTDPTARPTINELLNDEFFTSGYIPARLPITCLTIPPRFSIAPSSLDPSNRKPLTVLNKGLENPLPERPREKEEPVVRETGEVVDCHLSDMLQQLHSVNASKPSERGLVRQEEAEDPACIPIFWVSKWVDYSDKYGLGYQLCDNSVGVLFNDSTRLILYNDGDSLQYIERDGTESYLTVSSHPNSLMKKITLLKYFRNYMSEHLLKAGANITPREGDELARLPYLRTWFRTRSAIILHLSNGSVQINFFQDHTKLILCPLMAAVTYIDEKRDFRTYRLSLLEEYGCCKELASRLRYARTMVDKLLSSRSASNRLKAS
UniProt Q13131: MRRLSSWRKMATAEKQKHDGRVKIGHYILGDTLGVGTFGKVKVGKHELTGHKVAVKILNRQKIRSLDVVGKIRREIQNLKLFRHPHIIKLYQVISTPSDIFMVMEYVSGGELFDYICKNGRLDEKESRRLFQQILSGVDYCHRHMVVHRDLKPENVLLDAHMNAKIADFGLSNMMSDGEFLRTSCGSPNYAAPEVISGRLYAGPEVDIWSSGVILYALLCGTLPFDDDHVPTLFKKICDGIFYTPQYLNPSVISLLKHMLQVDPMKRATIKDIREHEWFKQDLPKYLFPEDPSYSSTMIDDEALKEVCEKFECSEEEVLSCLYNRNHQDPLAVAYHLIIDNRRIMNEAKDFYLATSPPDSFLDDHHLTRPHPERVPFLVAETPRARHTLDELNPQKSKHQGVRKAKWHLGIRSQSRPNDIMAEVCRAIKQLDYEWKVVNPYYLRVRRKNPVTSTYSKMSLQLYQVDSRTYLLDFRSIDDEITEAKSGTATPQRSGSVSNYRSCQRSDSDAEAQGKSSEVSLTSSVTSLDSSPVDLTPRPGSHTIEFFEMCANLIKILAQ
UniProt Q14289, whole entry, looked up: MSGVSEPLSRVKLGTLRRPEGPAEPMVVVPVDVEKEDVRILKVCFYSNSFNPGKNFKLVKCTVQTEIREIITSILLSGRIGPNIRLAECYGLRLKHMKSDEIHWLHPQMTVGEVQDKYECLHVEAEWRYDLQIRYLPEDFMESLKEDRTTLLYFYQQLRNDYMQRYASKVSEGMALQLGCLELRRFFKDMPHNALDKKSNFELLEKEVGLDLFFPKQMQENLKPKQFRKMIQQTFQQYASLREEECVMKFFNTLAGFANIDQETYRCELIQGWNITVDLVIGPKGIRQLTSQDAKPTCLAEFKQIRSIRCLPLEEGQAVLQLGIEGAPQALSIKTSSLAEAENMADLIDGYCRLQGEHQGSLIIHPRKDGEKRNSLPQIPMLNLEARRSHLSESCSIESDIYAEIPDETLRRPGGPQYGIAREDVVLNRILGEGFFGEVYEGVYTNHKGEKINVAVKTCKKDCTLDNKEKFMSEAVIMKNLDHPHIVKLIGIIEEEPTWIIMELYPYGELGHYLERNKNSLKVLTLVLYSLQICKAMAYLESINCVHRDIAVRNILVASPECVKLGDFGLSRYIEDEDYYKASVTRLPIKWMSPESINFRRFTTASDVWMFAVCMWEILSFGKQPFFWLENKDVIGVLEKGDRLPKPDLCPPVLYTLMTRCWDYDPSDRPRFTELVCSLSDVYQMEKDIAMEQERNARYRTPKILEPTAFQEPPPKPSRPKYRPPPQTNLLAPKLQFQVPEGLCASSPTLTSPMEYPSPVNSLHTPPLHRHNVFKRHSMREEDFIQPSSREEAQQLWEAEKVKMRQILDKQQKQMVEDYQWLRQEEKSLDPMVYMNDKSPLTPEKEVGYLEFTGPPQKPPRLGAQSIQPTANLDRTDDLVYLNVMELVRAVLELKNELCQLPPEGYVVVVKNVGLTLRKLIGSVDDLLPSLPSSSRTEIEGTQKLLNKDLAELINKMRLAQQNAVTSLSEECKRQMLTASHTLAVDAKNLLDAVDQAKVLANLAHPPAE
UniProt Q13546: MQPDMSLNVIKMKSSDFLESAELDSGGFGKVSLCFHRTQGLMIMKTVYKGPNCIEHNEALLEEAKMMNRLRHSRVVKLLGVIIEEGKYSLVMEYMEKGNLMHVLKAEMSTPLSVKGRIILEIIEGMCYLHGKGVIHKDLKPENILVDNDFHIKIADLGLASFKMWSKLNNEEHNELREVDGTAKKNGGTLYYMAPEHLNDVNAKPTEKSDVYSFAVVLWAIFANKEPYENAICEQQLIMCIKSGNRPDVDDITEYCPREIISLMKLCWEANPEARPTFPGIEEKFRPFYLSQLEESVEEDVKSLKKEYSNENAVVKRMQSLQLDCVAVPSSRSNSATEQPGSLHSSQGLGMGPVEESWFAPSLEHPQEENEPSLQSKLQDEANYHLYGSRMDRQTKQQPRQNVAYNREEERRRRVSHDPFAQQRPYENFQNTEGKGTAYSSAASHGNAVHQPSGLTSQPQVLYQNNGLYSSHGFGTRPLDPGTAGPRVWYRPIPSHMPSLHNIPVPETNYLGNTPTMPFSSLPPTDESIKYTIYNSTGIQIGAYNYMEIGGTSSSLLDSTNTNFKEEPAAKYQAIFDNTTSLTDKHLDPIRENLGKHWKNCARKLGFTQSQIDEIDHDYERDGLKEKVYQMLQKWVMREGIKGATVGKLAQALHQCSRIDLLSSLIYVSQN
UniProt Q01974, whole entry: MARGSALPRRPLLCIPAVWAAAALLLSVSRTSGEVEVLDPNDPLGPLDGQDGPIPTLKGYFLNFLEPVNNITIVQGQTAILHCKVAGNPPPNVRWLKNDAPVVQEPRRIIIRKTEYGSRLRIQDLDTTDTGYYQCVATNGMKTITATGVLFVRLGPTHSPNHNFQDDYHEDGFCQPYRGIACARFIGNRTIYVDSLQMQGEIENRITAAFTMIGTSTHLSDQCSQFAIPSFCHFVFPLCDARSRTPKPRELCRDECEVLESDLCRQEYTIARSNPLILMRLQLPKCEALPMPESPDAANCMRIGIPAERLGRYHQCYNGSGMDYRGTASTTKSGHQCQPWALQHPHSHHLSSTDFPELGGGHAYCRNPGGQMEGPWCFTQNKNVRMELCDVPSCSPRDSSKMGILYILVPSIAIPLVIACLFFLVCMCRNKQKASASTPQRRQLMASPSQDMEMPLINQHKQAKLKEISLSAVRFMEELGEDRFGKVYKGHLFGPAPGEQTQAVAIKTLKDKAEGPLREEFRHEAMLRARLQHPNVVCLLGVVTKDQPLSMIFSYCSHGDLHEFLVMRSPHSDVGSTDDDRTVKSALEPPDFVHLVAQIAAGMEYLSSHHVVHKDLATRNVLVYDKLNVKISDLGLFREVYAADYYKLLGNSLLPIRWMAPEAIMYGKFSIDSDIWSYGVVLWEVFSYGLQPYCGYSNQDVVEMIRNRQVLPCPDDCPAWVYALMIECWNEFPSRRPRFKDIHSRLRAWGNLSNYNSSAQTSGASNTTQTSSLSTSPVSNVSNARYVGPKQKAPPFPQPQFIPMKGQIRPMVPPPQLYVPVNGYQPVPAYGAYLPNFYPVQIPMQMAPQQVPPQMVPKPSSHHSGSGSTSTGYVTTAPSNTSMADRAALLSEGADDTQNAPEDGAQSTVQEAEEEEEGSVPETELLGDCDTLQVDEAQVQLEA
UniProt Q15418, whole entry: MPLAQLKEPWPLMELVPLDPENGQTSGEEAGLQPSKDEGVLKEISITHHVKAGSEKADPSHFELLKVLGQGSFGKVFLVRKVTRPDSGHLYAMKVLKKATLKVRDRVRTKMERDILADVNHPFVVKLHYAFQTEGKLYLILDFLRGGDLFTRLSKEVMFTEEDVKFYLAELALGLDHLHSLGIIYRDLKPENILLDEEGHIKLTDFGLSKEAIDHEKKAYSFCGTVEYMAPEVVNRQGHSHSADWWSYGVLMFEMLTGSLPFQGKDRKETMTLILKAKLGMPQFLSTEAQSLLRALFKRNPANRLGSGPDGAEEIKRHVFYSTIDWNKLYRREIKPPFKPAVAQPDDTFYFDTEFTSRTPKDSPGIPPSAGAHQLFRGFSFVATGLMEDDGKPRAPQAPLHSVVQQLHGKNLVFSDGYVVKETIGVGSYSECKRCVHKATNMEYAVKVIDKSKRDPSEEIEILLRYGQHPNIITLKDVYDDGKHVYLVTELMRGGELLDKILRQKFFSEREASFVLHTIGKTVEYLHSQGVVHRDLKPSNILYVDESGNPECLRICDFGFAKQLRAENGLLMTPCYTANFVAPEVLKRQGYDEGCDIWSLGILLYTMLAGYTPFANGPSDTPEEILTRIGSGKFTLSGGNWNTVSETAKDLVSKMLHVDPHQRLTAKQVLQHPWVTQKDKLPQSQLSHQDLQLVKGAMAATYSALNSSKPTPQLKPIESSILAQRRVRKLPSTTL
UniProt Q9NYA1, whole entry: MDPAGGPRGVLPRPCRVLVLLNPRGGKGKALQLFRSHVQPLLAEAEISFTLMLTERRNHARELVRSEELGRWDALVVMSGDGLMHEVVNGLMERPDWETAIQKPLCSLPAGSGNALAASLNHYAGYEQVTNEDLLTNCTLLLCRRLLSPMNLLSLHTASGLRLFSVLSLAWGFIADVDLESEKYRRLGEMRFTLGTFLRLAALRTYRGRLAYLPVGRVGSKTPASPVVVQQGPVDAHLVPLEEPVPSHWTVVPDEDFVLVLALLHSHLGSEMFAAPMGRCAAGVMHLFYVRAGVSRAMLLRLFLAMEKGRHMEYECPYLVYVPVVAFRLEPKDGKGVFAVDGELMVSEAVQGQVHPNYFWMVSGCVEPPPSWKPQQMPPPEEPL
UniProt Q9Y6E0: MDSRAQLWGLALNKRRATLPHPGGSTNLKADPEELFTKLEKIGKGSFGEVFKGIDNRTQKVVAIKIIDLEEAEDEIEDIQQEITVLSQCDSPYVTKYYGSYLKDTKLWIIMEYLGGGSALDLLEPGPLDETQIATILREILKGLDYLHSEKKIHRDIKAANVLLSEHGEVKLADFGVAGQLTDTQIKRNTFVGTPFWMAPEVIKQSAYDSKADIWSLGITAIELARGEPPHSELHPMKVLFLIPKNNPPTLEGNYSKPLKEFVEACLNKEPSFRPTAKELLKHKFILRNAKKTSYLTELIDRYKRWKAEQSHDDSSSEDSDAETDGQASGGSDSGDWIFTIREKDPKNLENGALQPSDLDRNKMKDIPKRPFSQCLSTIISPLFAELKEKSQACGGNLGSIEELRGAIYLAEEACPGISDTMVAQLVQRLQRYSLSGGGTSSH

Columns and labels:
Assay in all cases: kinase-Nluc reporter destabilization hit call (1 = scored as downregulated) (binary); higher = compound decreases kinase abundance
Settings in all cases: K562; 2-18 h
PDPK1 = PDPK1 (UniProt O15530)
PIK4CA = PIK4CA (UniProt P42356)
PIK4CB = PIK4CB (UniProt Q9UBF8)
PLK1 = PLK1 (UniProt P53350)
PRKAA1 = PRKAA1 (UniProt Q13131)
PRKCA = PRKCA (UniProt P17252)
PTK2 = PTK2 (UniProt Q05397)
PTK2B = PTK2B (UniProt Q14289)
RAF1 = RAF1 (UniProt P04049)
[1] = molecular target: RAF1_S257L (clone: RAF1_mut) (UniProt P04049)
RET = RET (UniProt P07949)
[2] = molecular target: RET_M918T (clone: RET_mut) (UniProt P07949)
RIOK1 = RIOK1 (UniProt Q9BRS2)
RIPK1 = RIPK1 (UniProt Q13546)
RIPK2 = RIPK2 (UniProt O43353)
ROR2 = ROR2 (UniProt Q01974)
RPS6KA1 = RPS6KA1 (UniProt Q15418)
SPHK1 = SPHK1 (UniProt Q9NYA1)
SRC = SRC (UniProt P12931)
STK24 = STK24 (UniProt Q9Y6E0)

Measured: kinase-Nluc reporter destabilization hit call

COc1cc2ncc(-c3ccccc3)nc2cc1OC [Tyrphostin AG1296] (10 µM)
inactive: PDPK1 = 0 | PIK4CA 0 | PIK4CB 0 | PLK1 = 0 | PRKAA1 = 0 | PRKCA 0 | PTK2 = 0 | PTK2B 0 | RAF1 = 0 | [1] 0 | RET 0 | [2] 0 | RIOK1 = 0 | RIPK1 = 0 | RIPK2 = 0 | ROR2 = 0 | RPS6KA1 = 0 | SPHK1 = 0 | SRC 0 | STK24 = 0

Cc1nc2sccn2c(=O)c1CCN1CCC(=C(c2ccccc2)c2ccc(F)cc2)CC1 (10 µM)
inactive: PDPK1 = 0 | PIK4CA 0 | PIK4CB 0 | PLK1 = 0 | PRKAA1 = 0 | PRKCA 0 | PTK2 = 0 | PTK2B 0 | RAF1 = 0 | [1] 0 | RET 0 | [2] 0 | RIOK1 = 0 | RIPK1 = 0 | RIPK2 = 0 | ROR2 = 0 | RPS6KA1 = 0 | SPHK1 = 0 | SRC 0 | STK24 = 0

c1cc(-c2c[nH]c3nccc(N4CCC[C@@]5(CCCCN5)C4)c23)ncn1 (10 µM)
inactive: PDPK1 = 0 | PIK4CA 0 | PIK4CB 0 | PLK1 = 0 | PRKAA1 = 0 | PRKCA 0 | PTK2 = 0 | PTK2B 0 | RAF1 = 0 | [1] 0 | RET 0 | [2] 0 | RIOK1 = 0 | RIPK1 = 0 | RIPK2 = 0 | ROR2 = 0 | RPS6KA1 = 0 | SPHK1 = 0 | SRC 0 | STK24 = 0

Cc1nc(-c2cn3c(n2)-c2ccc(-c4cnn(C(C)(C)C(N)=O)c4)cc2OCC3)n(C(C)C)n1 [Taselisib] (10 µM)
inactive: PDPK1 = 0 | PIK4CA 0 | PIK4CB 0 | PLK1 = 0 | PRKAA1 = 0 | PRKCA 0 | PTK2 = 0 | PTK2B 0 | RAF1 = 0 | [1] 0 | RET 0 | [2] 0 | RIOK1 = 0 | RIPK1 = 0 | RIPK2 = 0 | ROR2 = 0 | RPS6KA1 = 0 | SPHK1 = 0 | SRC 0 | STK24 = 0

Three compounds already listed, sorted by molecular weight, low to high.
COc1cc2ncc(-c3ccccc3)nc2cc1OC [Tyrphostin AG1296] (10 µM)
inactive: PDPK1 = 0 | PIK4CA 0 | PIK4CB 0 | PLK1 = 0 | PRKAA1 = 0 | PRKCA 0 | PTK2 = 0 | PTK2B 0 | RAF1 = 0 | [1] 0 | RET 0 | [2] 0 | RIOK1 = 0 | RIPK1 = 0 | RIPK2 = 0 | ROR2 = 0 | RPS6KA1 = 0 | SPHK1 = 0 | SRC 0 | STK24 = 0

c1cc(-c2c[nH]c3nccc(N4CCC[C@@]5(CCCCN5)C4)c23)ncn1 (10 µM)
inactive: PDPK1 = 0 | PIK4CA 0 | PIK4CB 0 | PLK1 = 0 | PRKAA1 = 0 | PRKCA 0 | PTK2 = 0 | PTK2B 0 | RAF1 = 0 | [1] 0 | RET 0 | [2] 0 | RIOK1 = 0 | RIPK1 = 0 | RIPK2 = 0 | ROR2 = 0 | RPS6KA1 = 0 | SPHK1 = 0 | SRC 0 | STK24 = 0

Cc1nc(-c2cn3c(n2)-c2ccc(-c4cnn(C(C)(C)C(N)=O)c4)cc2OCC3)n(C(C)C)n1 [Taselisib] (10 µM)
inactive: PDPK1 = 0 | PIK4CA 0 | PIK4CB 0 | PLK1 = 0 | PRKAA1 = 0 | PRKCA 0 | PTK2 = 0 | PTK2B 0 | RAF1 = 0 | [1] 0 | RET 0 | [2] 0 | RIOK1 = 0 | RIPK1 = 0 | RIPK2 = 0 | ROR2 = 0 | RPS6KA1 = 0 | SPHK1 = 0 | SRC 0 | STK24 = 0

Further records

CC(C)(O)CNc1ncc(-c2ccnc(Nc3ccnc(Cl)c3)n2)c(CC2CC2)n1 (2.5 µM)
inactive: PDPK1 = 0 | PIK4CA 0 | PIK4CB 0 | PLK1 = 0 | PRKAA1 = 0 | PRKCA 0 | PTK2 = 0 | PTK2B 0 | RAF1 = 0 | [1] 0 | RET 0 | [2] 0 | RIOK1 = 0 | RIPK1 = 0 | RIPK2 = 0 | ROR2 = 0 | RPS6KA1 = 0 | SPHK1 = 0 | SRC 0 | STK24 = 0

CCc1cc2c(cc1N1CCC(N3CCOCC3)CC1)C(C)(C)c1[nH]c3cc(C#N)ccc3c1C2=O [Alectinib (Hydrochloride)] (2 µM)
inactive: PDPK1 = 0 | PIK4CA 0 | PIK4CB 0 | PLK1 = 0 | PRKAA1 = 0 | PRKCA 0 | PTK2 = 0 | PTK2B 0 | RAF1 = 0 | [1] 0 | RET 0 | [2] 0 | RIOK1 = 0 | RIPK1 = 0 | RIPK2 = 0 | ROR2 = 0 | RPS6KA1 = 0 | SPHK1 = 0 | SRC 0 | STK24 = 0

Cc1cc(=O)oc2c(C=O)c(O)ccc12 (10 µM)
inactive: PDPK1 = 0 | PIK4CA 0 | PIK4CB 0 | PLK1 = 0 | PRKAA1 = 0 | PRKCA 0 | PTK2 = 0 | PTK2B 0 | RAF1 = 0 | [1] 0 | RET 0 | [2] 0 | RIOK1 = 0 | RIPK1 = 0 | RIPK2 = 0 | ROR2 = 0 | RPS6KA1 = 0 | SPHK1 = 0 | SRC 0 | STK24 = 0

COc1cc(Nc2ncc(F)c(Nc3ccc4c(n3)N(COP(=O)(O)O)C(=O)C(C)(C)O4)n2)cc(OC)c1OC [Fostamatinib (disodium hexahydrate)] (10 µM)
inactive: PDPK1 = 0 | PIK4CA 0 | PIK4CB 0 | PLK1 = 0 | PRKAA1 = 0 | PRKCA 0 | PTK2 = 0 | PTK2B 0 | RAF1 = 0 | [1] 0 | RET 0 | [2] 0 | RIOK1 = 0 | RIPK1 = 0 | RIPK2 = 0 | ROR2 = 0 | RPS6KA1 = 0 | SPHK1 = 0 | SRC 0 | STK24 = 0

Cn1ncc(Cl)c1-c1cc(C(=O)N[C@H](CN)Cc2ccc(F)c(F)c2)oc1Cl [Uprosertib] (10 µM)
inactive: PDPK1 = 0 | PIK4CA 0 | PIK4CB 0 | PLK1 = 0 | PRKAA1 = 0 | PRKCA 0 | PTK2 = 0 | PTK2B 0 | RAF1 = 0 | [1] 0 | RET 0 | [2] 0 | RIOK1 = 0 | RIPK1 = 0 | RIPK2 = 0 | ROR2 = 0 | RPS6KA1 = 0 | SPHK1 = 0 | SRC 0 | STK24 = 0

Cc1[nH]c(/C=C2\C(=O)Nc3ccccc32)c(C)c1CCC(=O)O [(Z)-Orantinib] (10 µM)
inactive: PDPK1 = 0 | PIK4CA 0 | PIK4CB 0 | PLK1 = 0 | PRKAA1 = 0 | PRKCA 0 | PTK2 = 0 | PTK2B 0 | RAF1 = 0 | [1] 0 | RET 0 | [2] 0 | RIOK1 = 0 | RIPK1 = 0 | RIPK2 = 0 | ROR2 = 0 | SPHK1 = 0 | SRC 0 | STK24 = 0

Cc1ccc(C(=O)Nc2ccc(Oc3cc4cnn(C)c4cc3-c3cn[nH]c3)c(F)c2)c(=O)n1-c1ccc(F)cc1 [Merestinib dihydrochloride] (2.5 µM)
inactive: PDPK1 = 0 | PIK4CA 0 | PIK4CB 0 | PLK1 = 0 | PRKAA1 = 0 | PRKCA 0 | PTK2 = 0 | PTK2B 0 | RAF1 = 0 | [1] 0 | RET 0 | [2] 0 | RIOK1 = 0 | RIPK1 = 0 | RIPK2 = 0 | ROR2 = 0 | RPS6KA1 = 0 | SPHK1 = 0 | SRC 0 | STK24 = 0

CCCCCCCCCCCCC/C=C/[C@@H](O)[C@@H](N)CO [D-erythro-Sphingosine] (2.5 µM)
inactive: PDPK1 = 0 | PIK4CA 0 | PIK4CB 0 | PLK1 = 0 | PRKAA1 = 0 | PRKCA 0 | PTK2 = 0 | PTK2B 0 | RAF1 = 0 | [1] 0 | RET 0 | [2] 0 | RIOK1 = 0 | RIPK1 = 0 | RIPK2 = 0 | ROR2 = 0 | RPS6KA1 = 0 | SPHK1 = 0 | SRC 0 | STK24 = 0

C[C@@H]1CCN(C(=O)CC#N)C[C@@H]1N(C)c1ncnc2[nH]ccc12 [Tofacitinib] (10 µM)
inactive: PDPK1 = 0 | PIK4CA 0 | PIK4CB 0 | PLK1 = 0 | PRKAA1 = 0 | PRKCA 0 | PTK2 = 0 | RAF1 = 0 | [1] 0 | RET 0 | [2] 0 | RIOK1 = 0 | RIPK1 = 0 | RIPK2 = 0 | ROR2 = 0 | RPS6KA1 = 0 | SPHK1 = 0 | SRC 0 | STK24 = 0

CC(C)(C)c1nc(-c2cccc(NS(=O)(=O)c3c(F)cccc3F)c2F)c(-c2ccnc(N)n2)s1 [Dabrafenib] (2.5 µM)
inactive: PDPK1 = 0 | PIK4CA 0 | PIK4CB 0 | PLK1 = 0 | PRKAA1 = 0 | PRKCA 0 | PTK2 = 0 | PTK2B 0 | RAF1 = 0 | [1] 0 | RET 0 | [2] 0 | RIOK1 = 0 | RIPK1 = 0 | RIPK2 = 0 | ROR2 = 0 | RPS6KA1 = 0 | SPHK1 = 0 | SRC 0 | STK24 = 0

C=CC(=O)Nc1cccc(Nc2nc(Nc3ccc(NC4CN(CCF)C4)cc3OC)ncc2C(F)(F)F)c1 (2.5 µM)
inactive: PDPK1 = 0 | PIK4CA 0 | PIK4CB 0 | PLK1 = 0 | PRKAA1 = 0 | PRKCA 0 | PTK2 = 0 | PTK2B 0 | RAF1 = 0 | [1] 0 | RET 0 | [2] 0 | RIOK1 = 0 | RIPK1 = 0 | RIPK2 = 0 | ROR2 = 0 | RPS6KA1 = 0 | SPHK1 = 0 | SRC 0 | STK24 = 0

Cc1[nH]c(/C=C2\C(=O)Nc3ccc(F)cc32)c(C)c1C(=O)N[C@H]1CCN(C(=O)N(C)C)C1 [Vorolanib] (10 µM)
inactive: PDPK1 = 0 | PIK4CA 0 | PIK4CB 0 | PLK1 = 0 | PRKAA1 = 0 | PRKCA 0 | PTK2 = 0 | PTK2B 0 | RAF1 = 0 | [1] 0 | RET 0 | [2] 0 | RIOK1 = 0 | RIPK1 = 0 | RIPK2 = 0 | ROR2 = 0 | RPS6KA1 = 0 | SPHK1 = 0 | SRC 0 | STK24 = 0

COc1cc(Nc2ncc(F)c(Nc3ccc4c(n3)NC(=O)C(C)(C)O4)n2)cc(OC)c1OC (10 µM)
inactive: PDPK1 = 0 | PIK4CA 0 | PIK4CB 0 | PLK1 = 0 | PRKAA1 = 0 | PRKCA 0 | PTK2 = 0 | RAF1 = 0 | [1] 0 | RIOK1 = 0 | RIPK1 = 0 | RIPK2 = 0 | ROR2 = 0 | RPS6KA1 = 0 | SPHK1 = 0 | SRC 0 | STK24 = 0

CN(C)CCCOc1ccc(-c2ccc3ncc4c(c3c2)n(C2CCOCC2)c(=O)n4C)cn1 (2 µM)
inactive: PDPK1 = 0 | PIK4CA 0 | PIK4CB 0 | PLK1 = 0 | PRKAA1 = 0 | PRKCA 0 | PTK2 = 0 | PTK2B 0 | RAF1 = 0 | [1] 0 | RET 0 | [2] 0 | RIOK1 = 0 | RIPK1 = 0 | RIPK2 = 0 | ROR2 = 0 | RPS6KA1 = 0 | SPHK1 = 0 | SRC 0 | STK24 = 0
